# “And” between values parts separate entries of the source, which are not always exact repeats. Equal entries are not always repeated. Out of some 350,000 compounds screened, about 6,000 (1.7%) were called active. Inconclusive means that the source gave no clear call. Such entries were picked first, then a sample of the others. No stated cut-off is given here; in the data, active means CPE inhibition above about 20% (passing the limit was not always enough); inconclusive means no clear call, values can overlap the other calls; tested in BHK-21 cells.
# Test: protection of cells from dengue 2 killing – plate reader, single concentration, primary screen (AID 651640);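 further: 0% = median of neutral control wells and 100% = median of positive control wells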
# Conditions: DENV2-infected cells, cytopathic effect rescue, at 9.99 µM, hits give high values
row,Compound,CPE inhibition
1,CC(C)c1oc(=O)cc2c1[C@@H](O)[C@H]1OC(=O)[C@@]3(C)C[C@@H](O)[C@@H](O)[C@@]2(C)C13 (stereo not given in full),active: 87%
2,COC(=O)C1=C(C)NC(C)=C(C(=O)OC)C1c1ccccc1[N+](=O)[O-],inactive: 11.7%
3,O=C(Nc1cccc(C(F)(F)F)c1)OC1CN2CCC1CC2 (stereo not given),inactive: 5.71%
4,O=C(Cc1ccccc1)N1CCN(Cc2ccccc2Cl)CC1,inconclusive: 28.7%
5,O=c1[nH]c2ccccc2n1C1CCN(C(c2ccnc3ccccc23)c2nnnn2Cc2ccccc2)CC1 (stereo not given),inconclusive: 26.7%
6,NCc1cc(=O)[nH]o1,inconclusive: 24.7%
7,COC(=O)C1(F)C(=O)NC(=O)NC1O (stereo not given),inconclusive: 26%
8,C=CCn1c(O)c(C=NCCCn2ccnc2)c(=O)[nH]c1=O,inconclusive: 26.9%
9,COC(=O)C1=C(c2cccc(OCc3ccccc3)c2)C[C@@H]2CC[C@H]1N2C(=O)NCCCOC(C)C,inactive: -11.8%
10,COC(=O)C1=C(c2cccc(OCc3ccccc3)c2)C[C@@H]2CC[C@H]1N2C(=O)NCc1ccc(F)cc1,inactive: 0.861%
11,C[N+](C)(C)CC1CCCC(C[N+](C)(C)C)C1=O (stereo not given),inactive: -0.774%
12,COc1ccc2c(c1)[C@]13CCCCC1C(C2)N(C)CC3 (stereo not given in full),inconclusive: 34.3%
13,Brc1ccc2c(c1)CN(CC1CCCCC1)Cc1cnnn1-2,inconclusive: 64.4%
14,CN(C)c1ccc(CCN2CCOCC2)cc1,inconclusive: 36.8%
15,CN1C(=O)N(C)C(=O)C2(Cc3cc(NC(=O)c4ccc(F)cc4)ccc3N3CCCC32)C1=O (stereo not given),inconclusive: 31.8%
16,CN1CCN(Cc2cc(=O)n3ccsc3n2)CC1,inconclusive: 56.9%
17,Cc1ccc(OC(=O)N(C)C[C@@H]2OCc3ccccc3-c3c(n(C)c4ccccc34)C(=O)N([C@H](C)CO)C[C@@H]2C)cc1,inactive: 10.8%
18,O=c1[nH]c2ccccc2n1C1CCN(C(c2ccccc2OC(F)(F)F)c2nnnn2Cc2ccccc2)CC1 (stereo not given),inconclusive: 34.3%
19,C=CCN=C(SCC(=O)c1ccc(Cl)cc1)c1c(O)n(C)c(=O)n(C)c1=O,inconclusive: 20.7%
20,Cc1cc(C(=O)CN2CCCC2)c(C)n1-c1ccc(F)cc1,inactive: -2.55%
21,CCOC(=O)COc1ccc(/C=C2\C(=O)NC(=S)N(c3ccc(OC)cc3)C2=O)cc1OC,inconclusive: 28.9%
22,OC1CN2CCCC(O)C2C1O (stereo not given),active: 54.6%
23,COC(=O)C1=C(c2c(C)noc2C)C[C@@H]2CC[C@H]1N2C(=O)NC1CCCCC1,active: 48.2%
24,Cc1cccc(CN2CCCC(C(=O)c3ccc4c(c3)OCO4)C2)n1 (stereo not given),inactive: 5.21%
25,C[C@]12CCC3C(CC[C@H]4C[C@@H](O)CC[C@]34C)C1C[C@@H](O)C2=O (stereo not given in full),inconclusive: 20.4%
26,CCOC(=O)[C@]12Cc3cc(OC)ccc3[C@H]1N(C1CCCCC1)C(=O)c1cc(OC)ccc12,inactive: 5.02%
27,c1ccc(CCN2CCC3(CC2)OCCO3)cc1,inconclusive: 46.4%

# Look-ups from the entries so far:
# Value of O=C(Nc1cccc(C(F)(F)F)c1)OC1CN2CCC1CC2 (stereo not given) under CPE inhibition: inactive: 5.71%
# Value of OC1CN2CCCC(O)C2C1O (stereo not given) under CPE inhibition: active: 54.6%
# Value of COC(=O)C1=C(c2cccc(OCc3ccccc3)c2)C[C@@H]2CC[C@H]1N2C(=O)NCc1ccc(F)cc1 under CPE inhibition: inactive: 0.861%
# Value of c1ccc(CCN2CCC3(CC2)OCCO3)cc1 under CPE inhibition: inconclusive: 46.4%

# (list continues)

row,Compound,CPE inhibition
1,COc1cc2c(cc1OC)C(C)NCC2 (stereo not given),inconclusive: 22%
2,Oc1cccc2nc3ccccc3nc12,active: 111%
3,COC(=O)C1=C(c2ccc(-c3ccccc3)c(F)c2)C[C@@H]2CC[C@H]1N2C(=O)NCCCOC(C)C,active: 24.8%
4,COC(=O)C1=C(c2ccc(F)cc2OCc2ccccc2)C[C@@H]2CC[C@H]1N2C(=O)NCc1cccc(F)c1,inconclusive: 59.9%
5,C=CCN1CC[C@]23c4c5ccc(O)c4OC2C(O)CC[C@@]3(O)[C@H]1C5 (stereo not given in full),inconclusive: 21.7%
6,CCOc1ccccc1Oc1coc2cc(OC(=O)N(C)C)ccc2c1=O,inconclusive: 27%
7,CC(C)CC#Cc1ccc([C@@H]2[C@H]3CN(C(=O)Cc4ccccn4)CCCCN3[C@H]2CO)cc1,inactive: -3.03%
8,O=C1NCN(c2ccccc2)C12CCN(C(c1cccc3ccccc13)c1nnnn1-c1ccc3c(c1)OCCO3)CC2 (stereo not given),inconclusive: 59.4%
9,COC(=O)[C@@H]1[C@@H](CO)[C@@H]2Cn3c(ccc(-c4ccccc4)c3=O)[C@H]1N2CC1CCCCC1,inconclusive: 49.6%
10,C=CCn1c(O)c(C(C)=NCCN2CCN(C(=S)NC)CC2)c(=O)[nH]c1=O,inconclusive: 26%
11,CC(C)(C#CC(=O)O)OOC(c1ccccc1)(c1ccccc1)c1ccccc1,inactive: 6.35%
12,COc1ccc(F)cc1C(=O)C1CCCN(Cc2ccc(O)cc2)C1 (stereo not given),inactive: 0.282%
13,COc1ccc(-n2c(C)cc(C(=O)C[N+]34CCN(CC3)CC4)c2C)cc1,inactive: 4%
14,CC[C@@]1(O)C(=O)OCc2c1cc1n(c2=O)Cc2cc3c(NC(=O)CN)cccc3nc2-1,inconclusive: 25.4%
15,COC(=O)C1=CO[C@H](C)[C@H]2CN3CC[C@@]4(C(=O)Nc5ccccc54)[C@@H]3C[C@H]12,inconclusive: 34.5%
16,CC(C)C[C@H](NP(=O)(O)O[C@@H]1O[C@@H](C)[C@H](O)[C@@H](O)[C@H]1O)C(=O)N[C@@H](Cc1c[nH]c2ccccc12)C(=O)O,inconclusive: 21.8%
17,C[C@]12CCC(OC(=O)CCC(=O)O)CC1=CCC1C2CC[C@]2(C)C(=O)CCC12 (stereo not given in full),inactive: -4.89%
18,N#Cc1cccc(-c2ccc([C@@H]3[C@@H](CO)N4CCCCN(C(=O)Cc5ccccc5)C[C@@H]34)cc2)c1,active: 37.7%
19,COc1cc2c(c(OC)c1OC)-c1ccc(O)c(=O)cc1[C@@H](N)CC2,active: 86.2%
20,COc1ccc(C(=O)CC(c2ccc3c(c2)OCO3)c2c(O)c3ccccc3oc2=O)cc1OC (stereo not given),inconclusive: 37.4%
21,O=C(NCC1=C(c2cccc3ccccc23)C[C@@H]2CC[C@H]1N2Cc1ccco1)c1cccs1,inconclusive: 22.4%
22,C[C@H](CO)N1C[C@H](C)[C@@H](CN(C)C(=O)Oc2cccc3ccccc23)OCc2cnnn2CCCC1=O,inconclusive: 50.9%
23,O=C(Cc1ccccn1)N1CCCCN2[C@@H](CO)[C@H](c3ccc(-c4ccccc4)cc3)[C@@H]2C1,inactive: 2.05%
24,Cc1nn(CC(C)C)c(Cl)c1C(=O)NC1CCCCC1,inconclusive: 25.5%
25,Cc1cc(C)cc(N2C(=O)NC(=O)/C(=C\C=C\c3ccco3)C2=O)c1,inactive: -0.969%
26,CN1C(=O)/C(=C\c2ccc(Br)s2)C(=O)NC1=S,inactive: 0.983%
27,CNCCc1ccc(OC)c(OC)c1,active: 51.4%

row,Compound,CPE inhibition
1,COC(=O)C1=C(c2cc3ccccc3s2)C[C@@H]2CC[C@H]1N2C(=O)NCCO,inconclusive: 25.3%
2,NP(=O)(OCCCc1ccccc1)Oc1ccc(Cl)cc1 (stereo not given),active: 20.2%
3,COc1cc(OC)c(OC)cc1CNCCc1ccc2c(c1)OCO2,inconclusive: 49.6%
4,COC(=O)[C@H]1N[C@H]2c3ccc(C4=CCCC4)c(=O)n3C[C@H]2[C@@H]1CO,active: 128%
5,COC(=O)[C@H]1[C@H](CO)[C@H]2Cn3c(ccc(-c4ccccc4F)c3=O)[C@@H]1N2C(C)=O,inconclusive: 52.7%
6,NS(=O)(=O)c1ccc(-c2ccc(C=C3C(=O)NC(=S)NC3=O)o2)cc1,inconclusive: 21%
7,C[C@]12CC[C@@H](O)CC1=CCC1C2CC[C@@]2(C)C1C[C@@H](F)[C@H]2O (stereo not given in full),active: 32.7%
8,COC(=O)[C@H]1[C@H](CO)[C@H]2Cn3c(ccc(C4=CCCCC4)c3=O)[C@@H]1N2Cc1ccccc1OC,inactive: -6.15%
9,NCCc1c[nH]c2ccccc12,active: 62.6%
10,O=C(Cc1ccccc1)N1C[C@@H]2[C@H](c3ccccc31)[C@H](CO)N2Cc1ccccc1,inconclusive: 37.3%
11,O=c1[nH]c2ccccc2n1C1CCN(C(c2nnnn2-c2ccc3c(c2)OCCO3)C2CC2)CC1 (stereo not given),inconclusive: 68.2%
12,CCC(C)NC1(c2ccccc2)CCCCC1 (stereo not given),inconclusive: 82.1%
13,CN1CCN(C(=O)COc2ccc(S(=O)(=O)N(C)Cc3ccccc3)cc2)CC1,inactive: 0.52%
14,CN(C)c1ccc(/C=C/C=C/c2sc3ccccc3[n+]2C)cc1,inactive: -9.13%
15,Cc1ccc(-c2cc(-c3ccc(C)cc3)[n+](-c3ccc(C(=O)[O-])cc3)c(-c3ccc(C)cc3)c2)cc1,inactive: -0.232%
16,CC1CN(c2cc([N+](=O)[O-])ccc2Cl)CC(C)N1 (stereo not given),inactive: 4.38%
17,O=C(Cc1cccnc1)N1CCCCN2[C@H](CO)[C@H](c3ccc(/C=C/c4ccccc4)cc3)[C@H]2C1,active: 25.4%
18,CC1(CCO)C(=O)NC(=S)NC1=O,inconclusive: 43.4%
19,COC(=O)C1=C(c2ccc(F)cc2OCc2ccccc2)C[C@@H]2CC[C@H]1N2C(=O)NCc1ccccc1,active: 67.9%
20,COc1ccc(Oc2cc(NC(=O)c3nn(C)cc3[N+](=O)[O-])cc([N+](=O)[O-])c2)cc1,inactive: 2.7%
21,O=C1CN=C(c2ccccc2)c2cc([N+](=O)[O-])ccc2N1,inconclusive: 66.4%
22,O=C(Cc1cccnc1)N1CCCCN2[C@H](CO)[C@H](c3ccc(C#CC4(O)CCCC4)cc3)[C@H]2C1,inactive: 2.54%
23,CCOC(=O)[C@]12Cc3cc(C)ccc3[C@H]1N(C1CCCCC1)C(=O)c1ccccc12,inconclusive: 36.3%
24,C/C=C/c1ccc(C2[C@@H]3CN(C(=O)C4CCC4)C[C@H]2N3)cc1 (stereo not given in full),inactive: 0.241% and inactive: -8.85%
25,C/C=C/c1ccc(C2[C@@H]3CN(C(=O)C4CCCC4)C[C@H]2N3)cc1 (stereo not given in full),inconclusive: 23.5%
26,CN(C)C(=O)Oc1cc(OC(=O)N(C)C)cc(C(O)CNC(C)(C)C)c1 (stereo not given),inconclusive: 25.8%
